Assay results published in the supplement of paper PMC10849652.
This is one part of the list.

Chains of the proteins cited; added tags and fusions are not shown. Lines headed by an entry give the natural chain unless they say otherwise; changes in a name come on top.
UniProt Q9HBI6: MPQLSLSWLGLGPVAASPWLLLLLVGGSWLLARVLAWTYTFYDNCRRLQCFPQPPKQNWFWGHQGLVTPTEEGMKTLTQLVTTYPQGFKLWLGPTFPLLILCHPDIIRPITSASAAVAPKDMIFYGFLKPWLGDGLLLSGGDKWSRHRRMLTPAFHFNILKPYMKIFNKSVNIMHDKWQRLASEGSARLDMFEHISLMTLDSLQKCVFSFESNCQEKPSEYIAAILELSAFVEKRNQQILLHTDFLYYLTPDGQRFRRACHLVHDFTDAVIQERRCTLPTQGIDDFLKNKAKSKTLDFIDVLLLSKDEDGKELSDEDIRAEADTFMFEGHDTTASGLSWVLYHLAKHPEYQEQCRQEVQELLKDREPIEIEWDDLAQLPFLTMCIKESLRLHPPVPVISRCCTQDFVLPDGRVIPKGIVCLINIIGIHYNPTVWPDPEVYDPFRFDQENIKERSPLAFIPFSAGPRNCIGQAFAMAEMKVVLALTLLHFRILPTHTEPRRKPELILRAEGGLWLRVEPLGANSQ
UniProt Q8IZD4: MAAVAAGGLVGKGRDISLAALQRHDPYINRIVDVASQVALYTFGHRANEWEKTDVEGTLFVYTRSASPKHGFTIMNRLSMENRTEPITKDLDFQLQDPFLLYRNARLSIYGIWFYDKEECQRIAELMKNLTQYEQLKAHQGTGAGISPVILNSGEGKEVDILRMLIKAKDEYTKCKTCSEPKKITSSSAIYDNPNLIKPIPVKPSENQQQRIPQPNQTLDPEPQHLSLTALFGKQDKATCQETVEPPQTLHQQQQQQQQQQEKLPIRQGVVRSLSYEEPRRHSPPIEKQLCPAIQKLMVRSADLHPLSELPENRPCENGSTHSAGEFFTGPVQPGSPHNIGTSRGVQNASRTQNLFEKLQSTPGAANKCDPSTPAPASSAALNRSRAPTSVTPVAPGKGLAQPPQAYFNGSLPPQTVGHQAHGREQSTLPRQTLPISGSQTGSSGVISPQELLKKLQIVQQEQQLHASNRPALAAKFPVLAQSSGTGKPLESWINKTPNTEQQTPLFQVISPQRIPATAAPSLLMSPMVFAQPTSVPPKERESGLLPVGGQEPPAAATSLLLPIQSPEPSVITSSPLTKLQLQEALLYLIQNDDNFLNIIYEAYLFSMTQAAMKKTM
UniProt Q6ZUT9: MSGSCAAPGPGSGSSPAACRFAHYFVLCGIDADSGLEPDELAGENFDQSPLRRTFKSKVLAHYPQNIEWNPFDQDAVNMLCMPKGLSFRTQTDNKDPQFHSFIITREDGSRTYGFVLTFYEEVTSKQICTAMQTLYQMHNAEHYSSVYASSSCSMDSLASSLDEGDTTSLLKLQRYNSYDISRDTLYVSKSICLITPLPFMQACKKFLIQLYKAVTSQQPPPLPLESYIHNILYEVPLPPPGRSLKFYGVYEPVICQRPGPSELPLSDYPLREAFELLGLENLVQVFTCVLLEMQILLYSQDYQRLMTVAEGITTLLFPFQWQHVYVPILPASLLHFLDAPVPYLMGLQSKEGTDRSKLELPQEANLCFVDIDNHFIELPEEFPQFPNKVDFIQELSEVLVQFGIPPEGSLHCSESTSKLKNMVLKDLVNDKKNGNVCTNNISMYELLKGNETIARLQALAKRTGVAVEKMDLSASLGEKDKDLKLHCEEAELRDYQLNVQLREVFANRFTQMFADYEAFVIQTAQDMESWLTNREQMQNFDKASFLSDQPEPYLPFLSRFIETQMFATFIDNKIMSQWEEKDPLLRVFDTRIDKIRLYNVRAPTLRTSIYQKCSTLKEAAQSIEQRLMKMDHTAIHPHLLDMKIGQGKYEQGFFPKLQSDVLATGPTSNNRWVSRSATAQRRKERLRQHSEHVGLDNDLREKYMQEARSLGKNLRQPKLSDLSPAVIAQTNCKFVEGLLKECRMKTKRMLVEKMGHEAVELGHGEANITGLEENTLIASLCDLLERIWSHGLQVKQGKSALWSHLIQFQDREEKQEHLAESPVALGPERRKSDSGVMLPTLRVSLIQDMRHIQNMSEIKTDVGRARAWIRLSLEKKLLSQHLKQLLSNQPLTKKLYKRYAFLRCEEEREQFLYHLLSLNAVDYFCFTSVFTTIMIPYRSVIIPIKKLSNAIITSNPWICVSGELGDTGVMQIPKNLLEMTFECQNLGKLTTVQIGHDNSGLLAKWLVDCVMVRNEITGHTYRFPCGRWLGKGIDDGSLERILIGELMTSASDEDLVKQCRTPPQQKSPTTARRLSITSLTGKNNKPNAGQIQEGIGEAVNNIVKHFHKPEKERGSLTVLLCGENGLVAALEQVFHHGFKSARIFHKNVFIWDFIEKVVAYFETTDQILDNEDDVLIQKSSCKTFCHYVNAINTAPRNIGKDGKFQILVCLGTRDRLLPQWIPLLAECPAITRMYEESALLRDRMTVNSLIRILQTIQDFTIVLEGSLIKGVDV
UniProt P98082: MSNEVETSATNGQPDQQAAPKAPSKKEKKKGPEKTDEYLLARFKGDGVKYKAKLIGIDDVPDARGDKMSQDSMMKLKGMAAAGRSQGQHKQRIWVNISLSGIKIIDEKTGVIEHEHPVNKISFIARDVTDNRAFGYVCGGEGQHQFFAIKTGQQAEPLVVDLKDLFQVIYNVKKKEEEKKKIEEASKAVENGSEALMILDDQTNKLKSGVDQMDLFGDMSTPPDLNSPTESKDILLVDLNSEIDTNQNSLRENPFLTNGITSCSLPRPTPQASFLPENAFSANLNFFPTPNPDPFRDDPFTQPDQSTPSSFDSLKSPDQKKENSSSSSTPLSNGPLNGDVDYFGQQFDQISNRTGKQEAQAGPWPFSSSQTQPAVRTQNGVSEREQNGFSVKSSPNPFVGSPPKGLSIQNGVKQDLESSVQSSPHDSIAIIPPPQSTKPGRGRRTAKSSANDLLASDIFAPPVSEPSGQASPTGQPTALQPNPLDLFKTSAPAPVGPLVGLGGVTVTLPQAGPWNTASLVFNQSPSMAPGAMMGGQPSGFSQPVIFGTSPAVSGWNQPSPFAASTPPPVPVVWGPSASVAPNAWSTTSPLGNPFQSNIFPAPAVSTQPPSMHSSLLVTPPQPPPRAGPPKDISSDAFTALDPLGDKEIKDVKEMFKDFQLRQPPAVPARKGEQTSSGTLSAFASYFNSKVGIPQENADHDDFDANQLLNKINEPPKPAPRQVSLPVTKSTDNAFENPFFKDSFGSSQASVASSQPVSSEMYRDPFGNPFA
UniProt Q5QP82: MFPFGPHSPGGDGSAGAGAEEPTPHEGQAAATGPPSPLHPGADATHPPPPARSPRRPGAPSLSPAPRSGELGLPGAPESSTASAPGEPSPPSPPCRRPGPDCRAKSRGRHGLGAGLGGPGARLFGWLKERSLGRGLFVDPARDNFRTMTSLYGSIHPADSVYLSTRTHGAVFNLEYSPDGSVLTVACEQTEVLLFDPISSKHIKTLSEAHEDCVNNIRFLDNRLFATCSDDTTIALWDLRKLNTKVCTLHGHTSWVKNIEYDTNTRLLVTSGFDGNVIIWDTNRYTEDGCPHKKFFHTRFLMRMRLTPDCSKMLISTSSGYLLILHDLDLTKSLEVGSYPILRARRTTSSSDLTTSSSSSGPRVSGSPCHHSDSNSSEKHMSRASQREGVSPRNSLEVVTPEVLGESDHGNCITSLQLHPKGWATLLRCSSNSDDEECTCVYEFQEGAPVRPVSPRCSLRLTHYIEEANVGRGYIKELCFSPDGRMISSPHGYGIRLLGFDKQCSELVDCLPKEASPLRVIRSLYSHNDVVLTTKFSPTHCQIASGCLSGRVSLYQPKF
UniProt Q9UJU6: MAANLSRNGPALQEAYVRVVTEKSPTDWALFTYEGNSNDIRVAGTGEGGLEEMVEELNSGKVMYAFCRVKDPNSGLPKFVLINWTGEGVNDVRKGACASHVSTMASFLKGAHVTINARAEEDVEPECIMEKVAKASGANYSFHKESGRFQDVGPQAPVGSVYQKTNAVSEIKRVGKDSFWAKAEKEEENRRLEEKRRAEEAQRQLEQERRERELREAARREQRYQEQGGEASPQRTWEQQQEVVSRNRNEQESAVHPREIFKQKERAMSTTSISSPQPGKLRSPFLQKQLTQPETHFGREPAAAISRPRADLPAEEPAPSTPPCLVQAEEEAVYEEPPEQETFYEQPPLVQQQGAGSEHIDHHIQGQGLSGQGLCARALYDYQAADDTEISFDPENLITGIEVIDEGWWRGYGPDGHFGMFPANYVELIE
UniProt Q96SD1, whole entry, looked up: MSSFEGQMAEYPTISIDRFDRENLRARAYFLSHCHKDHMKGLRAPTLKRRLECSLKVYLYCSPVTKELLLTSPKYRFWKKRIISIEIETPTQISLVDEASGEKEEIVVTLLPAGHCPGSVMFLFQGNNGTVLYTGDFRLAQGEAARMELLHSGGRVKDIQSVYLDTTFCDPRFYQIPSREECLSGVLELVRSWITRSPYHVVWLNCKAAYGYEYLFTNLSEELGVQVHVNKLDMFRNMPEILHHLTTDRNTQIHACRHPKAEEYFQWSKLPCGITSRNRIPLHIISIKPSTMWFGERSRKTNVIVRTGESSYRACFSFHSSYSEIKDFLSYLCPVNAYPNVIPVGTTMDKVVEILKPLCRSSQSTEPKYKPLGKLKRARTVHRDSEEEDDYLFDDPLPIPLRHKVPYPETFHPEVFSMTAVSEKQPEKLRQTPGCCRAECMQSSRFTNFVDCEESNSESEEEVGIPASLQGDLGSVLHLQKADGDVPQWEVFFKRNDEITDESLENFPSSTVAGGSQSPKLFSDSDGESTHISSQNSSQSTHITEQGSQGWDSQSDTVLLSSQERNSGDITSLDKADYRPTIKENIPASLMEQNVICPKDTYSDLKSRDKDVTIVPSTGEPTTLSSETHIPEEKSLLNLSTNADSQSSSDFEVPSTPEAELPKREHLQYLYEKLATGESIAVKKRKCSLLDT
UniProt Q9NQI0, whole entry, looked up: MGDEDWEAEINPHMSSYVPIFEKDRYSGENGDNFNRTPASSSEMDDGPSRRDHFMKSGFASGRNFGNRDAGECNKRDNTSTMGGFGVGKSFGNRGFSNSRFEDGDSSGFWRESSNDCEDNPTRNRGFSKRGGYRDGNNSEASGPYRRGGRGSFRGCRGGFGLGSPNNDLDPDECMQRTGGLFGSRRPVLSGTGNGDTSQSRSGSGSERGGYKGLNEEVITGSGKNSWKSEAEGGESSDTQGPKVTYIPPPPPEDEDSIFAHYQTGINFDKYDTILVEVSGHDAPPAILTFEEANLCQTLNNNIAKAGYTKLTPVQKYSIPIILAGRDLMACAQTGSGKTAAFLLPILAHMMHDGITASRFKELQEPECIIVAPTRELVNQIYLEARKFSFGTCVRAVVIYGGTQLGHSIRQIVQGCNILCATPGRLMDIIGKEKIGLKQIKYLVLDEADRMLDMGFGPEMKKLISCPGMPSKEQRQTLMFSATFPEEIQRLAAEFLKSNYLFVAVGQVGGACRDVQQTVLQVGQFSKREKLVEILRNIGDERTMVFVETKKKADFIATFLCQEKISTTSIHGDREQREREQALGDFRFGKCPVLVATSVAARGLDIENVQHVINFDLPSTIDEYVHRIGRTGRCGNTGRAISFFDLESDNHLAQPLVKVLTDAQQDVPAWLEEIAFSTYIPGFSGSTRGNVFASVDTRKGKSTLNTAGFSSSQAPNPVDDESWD

Key:
Experiment in all cases: log2 fold change, soluble protein after heating vs DMSO (PISA); higher = thermal stabilisation; K562 lysate, 10 uM; active = over 0.2 and 3.5 SD of the protein, either way, in both replicates (recomputed)
alvocidib = compound: CN1CC[C@H](c2c(O)cc(O)c3c(=O)cc(-c4ccccc4Cl)oc23)[C@H](O)C1 [alvocidib]
How it was run: (§1)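 K562 pellets were dounce-homogenised in PBS pH 7.4 with 1 mM MgCl2, and the crude extract at 1 mg/mL protein was treated with 10 μM compound for 30 min. Aliquots were heated for 3 min across 48°C-58°C, pooled, and brought to 0.5% NP-40 at 4°C; soluble protein was the supernatant after 21,000xg for 90 min. Soluble protein was quantified by TMTpro 16plex LC-MS/MS with channel sums equalised, and reported as log2 fold change in thermal stability against DMSO controls, with values from duplicates.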

Tubastatin A = compound: CN1CCc2c(c3ccccc3n2Cc2ccc(C(=O)NO)cc2)C1 [Tubastatin A]
How it was run: as §1

[1] = compound: CNc1nc(-c2ccc3c(N)n[nH]c3c2)cc(N2C[C@@H](C(=O)NC3CCCCC3)CC[C@H]2C)n1
How it was run: as §1

[2] = compound: C[C@H](C1=CC=C(C=C1)C(=O)NC2=C3C=CNC3=NC=C2)N
How it was run: as §1

duvelisib = compound: C[C@H](Nc1ncnc2nc[nH]c12)c1cc2cccc(Cl)c2c(=O)n1-c1ccccc1 [duvelisib]
How it was run: as §1

gandotinib = compound: Cc1cc(Nc2cc(CN3CCOCC3)c3nc(C)c(Cc4ccc(Cl)cc4F)n3n2)n[nH]1 [gandotinib]
How it was run: as §1

[3] = compound: Cc1cccc(CC(=O)N2CCc3c2ccc(-c2cn(C)c4ncnc(N)c24)c3F)n1
How it was run: as §1

[4] = compound: CNC(=O)C1=CC=CC=C1NC2=NC(=NC=C2Cl)NC3=C(C=C(C=C3)N4CCOCC4)OC
How it was run: as §1

defactinib = compound: CNC(=O)c1ccc(Nc2ncc(C(F)(F)F)c(NCc3nccnc3N(C)S(C)(=O)=O)n2)cc1 [defactinib]
How it was run: as §1

encorafenib = compound: COC(=O)N[C@@H](C)CNc1nccc(-c2cn(C(C)C)nc2-c2cc(Cl)cc(NS(C)(=O)=O)c2F)n1 [encorafenib]
How it was run: as §1

[5] = compound: COC(=O)[C@H](CCSC)NC(=O)C1=C(C=C(C=C1)NC[C@H](CS)N)C2=CC=CC=C2
How it was run: as §1

pictilisib = compound: CS(=O)(=O)N1CCN(Cc2cc3nc(-c4cccc5[nH]ncc45)nc(N4CCOCC4)c3s2)CC1 [pictilisib]
How it was run: as §1

crizotinib = compound: C[C@@H](Oc1cc(-c2cnn(C3CCNCC3)c2)cnc1N)c1c(Cl)ccc(F)c1Cl [crizotinib]
How it was run: as §1

tozasertib = compound: Cc1cc(Nc2cc(N3CCN(C)CC3)nc(Sc3ccc(NC(=O)C4CC4)cc3)n2)n[nH]1 [tozasertib]
How it was run: as §1

doramapimod = compound: Cc1ccc(-n2nc(C(C)(C)C)cc2NC(=O)Nc2ccc(OCCN3CCOCC3)c3ccccc23)cc1 [doramapimod]
How it was run: as §1

bafetinib = compound: Cc1ccc(NC(=O)c2ccc(CN3CC[C@H](N(C)C)C3)c(C(F)(F)F)c2)cc1Nc1nccc(-c2cncnc2)n1 [bafetinib]
How it was run: as §1

alisertib = compound: COc1cc(Nc2ncc3c(n2)-c2ccc(Cl)cc2C(c2c(F)cccc2OC)=NC3)ccc1C(=O)O [alisertib]
How it was run: as §1

gefitinib = compound: COc1cc2ncnc(Nc3ccc(F)c(Cl)c3)c2cc1OCCCN1CCOCC1 [gefitinib]
How it was run: as §1

[6] = compound: COc1cc2nc(-c3cc(F)ccc3O)nc(N[C@@H]3CNC[C@H]3C(C)(C)O)c2cc1OC
How it was run: as §1

lapatinib = compound: CS(=O)(=O)CCNCc1ccc(-c2ccc3ncnc(Nc4ccc(OCc5cccc(F)c5)c(Cl)c4)c3c2)o1 [lapatinib]
How it was run: as §1

Target	log2 fold change (alvocidib)	log2 fold change (Tubastatin A)	log2 fold change [1]	log2 fold change [2]	log2 fold change (duvelisib)	log2 fold change (gandotinib)	log2 fold change [3]	log2 fold change [4]	log2 fold change (defactinib)	log2 fold change (encorafenib)	log2 fold change [5]	log2 fold change (pictilisib)	log2 fold change (crizotinib)	log2 fold change (tozasertib)	log2 fold change (doramapimod)	log2 fold change (bafetinib)	log2 fold change (alisertib)	log2 fold change (gefitinib)	log2 fold change [6]	log2 fold change (lapatinib)
CYP4F11 (UniProt Q9HBI6)	inactive: -0.099	inactive: -0.47	inactive: -0.176	inactive: -0.249	inactive: -0.056	inactive: 0.36	inactive: 0.096													
DCP1B (UniProt Q8IZD4)	inactive: 0.089		inactive: 0.131	inactive: -0.012	inactive: -0.026	inactive: -0.014	inactive: 0.081	inactive: -0.319	inactive: 0.137	inactive: 0.175	inactive: -0.046	inactive: -0.076	inactive: 0.012	inactive: -0.036	inactive: -0.218	inactive: 0.013				
DENND5B isoform 2 (UniProt Q6ZUT9)	inactive: -0.048	inactive: 0.136	inactive: 0.083	inactive: -0.348	inactive: 0.079	inactive: 0.228	inactive: 0.465	inactive: -0.036				inactive: 0.091				inactive: -0.384	inactive: 0.051	inactive: 0.202		
DAB2 (UniProt P98082)	inactive: -0.008	inactive: -0.071	inactive: 0.023	inactive: -0.03	inactive: 0.01	inactive: -0.004	inactive: -0.019	inactive: -0.014	inactive: 0.012	inactive: 0.016	inactive: 0	inactive: -0.063	inactive: 0.003	inactive: -0.019	inactive: -0.01	inactive: -0.054	inactive: 0.002	inactive: -0.002	inactive: -0.014	inactive: 0.009
DCAF10 (UniProt Q5QP82)	inactive: -0.001	inactive: -0.146	inactive: 0.128	inactive: -0.074	inactive: -0.003	inactive: -0.182	inactive: 0.164	inactive: -0.032	inactive: 0.054	inactive: 0.055	inactive: -0.071	inactive: 0.009	inactive: 0.047	inactive: -0.004	inactive: -0.023	inactive: 0.007	inactive: -0.019	inactive: -0.031		
DBNL (UniProt Q9UJU6)	inactive: -0.028		inactive: 0.13	inactive: -0.114	inactive: -0.363	inactive: -0.053	inactive: 0.066	inactive: -0.197				inactive: -0.049				inactive: -0.182	inactive: 0.018	inactive: -0.036	inactive: -0.012	inactive: -0.03
DCLRE1C (UniProt Q96SD1)	inactive: 0.153	inactive: -0.027		inactive: -0.187		inactive: -0.033	inactive: -0.031						inactive: 0.028		inactive: 0.036				inactive: 0.256	inactive: 0.124
DDX4 (UniProt Q9NQI0)	inactive: -0.234	inactive: -0.173	inactive: -0.116	active: -0.481	inactive: 0.02	inactive: 0.132	inactive: 0.174	inactive: -0.05	inactive: -0.058	inactive: -0.047	inactive: -0.02	inactive: 0.035		inactive: 0.078		inactive: -0.167	inactive: 0.032	inactive: 0.021	inactive: -0.007	inactive: -0.045
